These results are taken from publication doi:10.1101/2021.10.26.465916.

Protein sequences, listed by entry. Tags and fused reporters are not part of them.
UniProt P0DMV8: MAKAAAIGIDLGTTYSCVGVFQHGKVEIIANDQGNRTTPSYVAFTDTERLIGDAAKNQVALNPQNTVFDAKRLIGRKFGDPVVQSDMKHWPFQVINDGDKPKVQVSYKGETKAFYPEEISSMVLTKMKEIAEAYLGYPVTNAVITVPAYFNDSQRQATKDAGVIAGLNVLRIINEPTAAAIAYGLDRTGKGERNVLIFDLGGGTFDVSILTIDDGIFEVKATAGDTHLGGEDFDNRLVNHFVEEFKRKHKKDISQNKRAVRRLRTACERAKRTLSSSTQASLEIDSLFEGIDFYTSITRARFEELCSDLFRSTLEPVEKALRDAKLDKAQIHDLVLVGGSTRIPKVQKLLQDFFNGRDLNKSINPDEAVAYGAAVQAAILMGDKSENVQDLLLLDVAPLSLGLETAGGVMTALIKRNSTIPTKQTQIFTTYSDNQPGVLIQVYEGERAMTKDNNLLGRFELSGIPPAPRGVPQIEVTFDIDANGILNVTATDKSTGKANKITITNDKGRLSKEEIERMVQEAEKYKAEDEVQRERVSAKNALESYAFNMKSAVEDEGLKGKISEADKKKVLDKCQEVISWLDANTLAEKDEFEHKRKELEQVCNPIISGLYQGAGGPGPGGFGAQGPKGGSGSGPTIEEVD

Results are given in words; binding and its absence hold for the method and conditions named. Binding seen in cells or lysates may run through a third protein. Some results given as binding are weak or reduced against the parent protein; the word gives no strength.

The test addresses HSPA1A (human (endogenous in HeLa)) (UniProt P0DMV8). As to the kind of experiment: co-IP.

B1: myeloid leukemia factor 2 (MLF2) (protein, UniProt Q15773 1-248)
chain: MFRFMRDVEPEDPMFLMDPFAIHRQHMSRMLSGGFGYSPFLSITDGNMPGTRPASRRMQQAGAVSPFGMLGMSGGFMDMFGMMNDMIGNMEHMTAGGNCQTFSSSTVISYSNTGDGAPKVYQETSEMRSAPGGIRETRRTVRDSDSGLEQMSIGHHIRDRAHILQRSRNHRTGDQEERQDYINLDESEAAAFDDEWRRETSRFRQQRPLEFRRLESSGAGGRRAEGPPRLAIQGPEDSPSRQSRRYDW
As for B1, the binding entry is “binds”.
